Construct, isoform or probe ends are uncertain for at least one entry. For some assays here: A weaker result is weaker than the reference pair of the same experiment. For some assays here: At least one verdict was read from the data and is not stated in words by the source.

Protein sequences, listed by entry. Tags and fused reporters are not part of them. Lines headed by an entry give the natural chain unless they say otherwise; changes in a name come on top.
UniProt Q01094: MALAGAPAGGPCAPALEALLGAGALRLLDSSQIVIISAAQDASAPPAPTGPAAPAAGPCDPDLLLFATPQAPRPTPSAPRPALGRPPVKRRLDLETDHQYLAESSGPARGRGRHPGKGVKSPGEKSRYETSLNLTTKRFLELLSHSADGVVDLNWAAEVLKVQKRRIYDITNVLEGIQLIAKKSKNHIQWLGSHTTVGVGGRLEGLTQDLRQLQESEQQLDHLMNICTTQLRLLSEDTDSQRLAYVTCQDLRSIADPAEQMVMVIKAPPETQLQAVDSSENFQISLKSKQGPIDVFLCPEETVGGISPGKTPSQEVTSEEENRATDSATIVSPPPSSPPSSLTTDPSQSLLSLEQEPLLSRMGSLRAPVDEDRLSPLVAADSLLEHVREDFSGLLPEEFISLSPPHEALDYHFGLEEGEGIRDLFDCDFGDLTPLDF

From article PMC2978110 come the findings set out here.

Data set [1] concerns the target GST-E2F1 (UniProt Q01094). Briefly: EMSA. The settings on record: positive control; 1.8 ug GST-E2F1 per reaction, 24 ng/ul ds mutant adenovirus E2 E2F-site oligo as nonspecific competitor; recombinant protein; label: 32P as probe, unlabeled as competitor. On the technique in general: In EMSA bound probe runs differently from free probe, usually more slowly.
The target of data set [2] is GST-E2F1 (UniProt Q01094). Briefly: competition with a labelled probe. To be noted: 100-fold excess vs DHFR probe, very inefficient; 1.8 ug GST-E2F1 per reaction, 24 ng/ul ds mutant adenovirus E2 E2F-site oligo as nonspecific competitor; recombinant protein.

For the sequence “CTAGAGCAATTTCGCGCCAAACTTGGATC (double strand) [DHFR E2F site]”, in the data set with GST-E2F1 [1], the binding result was “binds”. On to “CAGAAAATTCATAGCGCTGTGATTTTTAGATC (double strand) [TIMELESS E2F site]”, for which, in the data set with GST-E2F1 [2], the binding result is “binds more weakly”.
